Results from the supplement of paper PMC10849652.
This is one part of the list. Residues, ends and D or L forms follow the SMILES beside them. *: point of attachment. Cbz = O=C(OCc1ccccc1)*

Amino acid sequences for entries named in this document (tags omitted). A change or cut given only in a name is not applied to a line headed by its entry.
UniProt Q13131: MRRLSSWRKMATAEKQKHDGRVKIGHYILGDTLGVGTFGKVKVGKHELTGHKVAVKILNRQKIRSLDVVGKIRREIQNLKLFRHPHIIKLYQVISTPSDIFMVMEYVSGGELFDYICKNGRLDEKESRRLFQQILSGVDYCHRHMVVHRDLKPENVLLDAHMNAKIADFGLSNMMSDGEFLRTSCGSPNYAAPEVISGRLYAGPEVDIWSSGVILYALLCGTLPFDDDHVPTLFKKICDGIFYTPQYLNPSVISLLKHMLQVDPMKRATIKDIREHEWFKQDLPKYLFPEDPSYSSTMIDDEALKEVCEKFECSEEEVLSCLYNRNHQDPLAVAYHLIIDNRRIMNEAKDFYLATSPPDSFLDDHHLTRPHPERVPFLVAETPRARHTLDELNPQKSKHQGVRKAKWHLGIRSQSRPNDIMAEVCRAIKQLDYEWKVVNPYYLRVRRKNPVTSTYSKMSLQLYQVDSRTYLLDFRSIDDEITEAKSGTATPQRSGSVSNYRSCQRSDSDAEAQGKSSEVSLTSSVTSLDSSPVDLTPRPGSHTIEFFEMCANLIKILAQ
UniProt O43395: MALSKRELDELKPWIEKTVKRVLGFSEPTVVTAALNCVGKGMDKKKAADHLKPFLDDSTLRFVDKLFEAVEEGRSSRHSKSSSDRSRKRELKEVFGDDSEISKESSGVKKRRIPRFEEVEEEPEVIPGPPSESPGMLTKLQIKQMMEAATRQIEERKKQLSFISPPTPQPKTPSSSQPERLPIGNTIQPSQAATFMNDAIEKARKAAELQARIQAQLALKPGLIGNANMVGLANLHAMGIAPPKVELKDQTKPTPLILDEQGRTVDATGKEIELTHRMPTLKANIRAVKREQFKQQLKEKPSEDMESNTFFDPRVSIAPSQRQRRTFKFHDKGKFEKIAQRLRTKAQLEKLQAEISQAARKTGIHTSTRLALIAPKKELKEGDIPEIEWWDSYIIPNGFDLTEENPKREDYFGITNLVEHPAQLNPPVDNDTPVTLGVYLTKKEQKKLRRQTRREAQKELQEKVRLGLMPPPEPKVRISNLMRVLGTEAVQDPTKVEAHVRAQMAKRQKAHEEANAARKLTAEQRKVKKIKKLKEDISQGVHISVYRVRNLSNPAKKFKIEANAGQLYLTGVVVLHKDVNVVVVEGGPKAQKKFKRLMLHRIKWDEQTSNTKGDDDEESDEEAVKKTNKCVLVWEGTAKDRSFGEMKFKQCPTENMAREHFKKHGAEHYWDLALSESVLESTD
UniProt Q9Y570: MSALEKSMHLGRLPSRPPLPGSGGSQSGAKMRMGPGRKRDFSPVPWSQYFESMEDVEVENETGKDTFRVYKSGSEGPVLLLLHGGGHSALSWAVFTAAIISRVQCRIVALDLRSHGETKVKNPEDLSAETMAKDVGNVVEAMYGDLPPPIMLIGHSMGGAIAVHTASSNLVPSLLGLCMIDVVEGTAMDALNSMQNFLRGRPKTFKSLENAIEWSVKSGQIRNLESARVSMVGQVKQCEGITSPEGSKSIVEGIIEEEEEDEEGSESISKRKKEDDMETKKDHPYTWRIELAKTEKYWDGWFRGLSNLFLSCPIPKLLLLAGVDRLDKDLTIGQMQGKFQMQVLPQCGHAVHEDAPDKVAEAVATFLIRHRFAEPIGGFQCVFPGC
UniProt Q05655: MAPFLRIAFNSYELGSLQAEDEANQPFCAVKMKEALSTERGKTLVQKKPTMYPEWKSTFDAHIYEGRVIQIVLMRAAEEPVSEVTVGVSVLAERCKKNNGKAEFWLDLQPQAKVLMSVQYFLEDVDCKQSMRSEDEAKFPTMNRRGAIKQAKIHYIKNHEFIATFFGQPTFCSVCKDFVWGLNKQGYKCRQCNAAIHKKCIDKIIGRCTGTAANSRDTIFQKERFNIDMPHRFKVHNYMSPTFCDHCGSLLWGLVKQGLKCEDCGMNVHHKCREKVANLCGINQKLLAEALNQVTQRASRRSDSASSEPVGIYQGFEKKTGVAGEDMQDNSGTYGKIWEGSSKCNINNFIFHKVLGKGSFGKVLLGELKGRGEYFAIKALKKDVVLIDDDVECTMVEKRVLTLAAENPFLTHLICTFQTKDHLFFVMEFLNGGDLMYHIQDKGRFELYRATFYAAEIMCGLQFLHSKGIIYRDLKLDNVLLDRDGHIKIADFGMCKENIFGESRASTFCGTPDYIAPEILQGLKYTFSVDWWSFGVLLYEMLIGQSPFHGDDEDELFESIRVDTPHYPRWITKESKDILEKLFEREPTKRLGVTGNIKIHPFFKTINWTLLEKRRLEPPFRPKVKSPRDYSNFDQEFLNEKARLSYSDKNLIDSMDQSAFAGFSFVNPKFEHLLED
UniProt Q9NVM4: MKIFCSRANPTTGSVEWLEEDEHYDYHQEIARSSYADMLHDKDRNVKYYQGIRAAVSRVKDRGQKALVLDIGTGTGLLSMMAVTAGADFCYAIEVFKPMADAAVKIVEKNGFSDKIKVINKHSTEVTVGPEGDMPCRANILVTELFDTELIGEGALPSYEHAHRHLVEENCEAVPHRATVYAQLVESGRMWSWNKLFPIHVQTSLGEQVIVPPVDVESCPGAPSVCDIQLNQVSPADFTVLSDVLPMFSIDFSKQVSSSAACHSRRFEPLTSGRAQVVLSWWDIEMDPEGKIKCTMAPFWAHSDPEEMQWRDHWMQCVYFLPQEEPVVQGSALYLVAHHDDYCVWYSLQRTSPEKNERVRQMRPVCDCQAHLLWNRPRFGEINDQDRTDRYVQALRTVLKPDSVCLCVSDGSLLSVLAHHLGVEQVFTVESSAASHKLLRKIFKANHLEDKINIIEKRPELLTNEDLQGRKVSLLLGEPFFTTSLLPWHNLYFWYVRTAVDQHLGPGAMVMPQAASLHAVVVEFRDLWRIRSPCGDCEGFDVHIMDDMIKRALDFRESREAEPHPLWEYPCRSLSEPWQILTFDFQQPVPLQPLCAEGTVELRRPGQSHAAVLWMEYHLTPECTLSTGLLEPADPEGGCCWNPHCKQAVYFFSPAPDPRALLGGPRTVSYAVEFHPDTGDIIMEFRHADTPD
UniProt Q13162: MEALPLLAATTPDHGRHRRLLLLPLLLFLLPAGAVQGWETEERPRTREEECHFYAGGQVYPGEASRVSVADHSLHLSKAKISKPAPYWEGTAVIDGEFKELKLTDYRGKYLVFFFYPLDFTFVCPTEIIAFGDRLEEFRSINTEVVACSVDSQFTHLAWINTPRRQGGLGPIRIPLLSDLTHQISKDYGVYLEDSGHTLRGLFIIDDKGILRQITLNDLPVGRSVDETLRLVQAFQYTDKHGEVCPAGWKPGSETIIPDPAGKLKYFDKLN
UniProt P05771, whole entry, looked up: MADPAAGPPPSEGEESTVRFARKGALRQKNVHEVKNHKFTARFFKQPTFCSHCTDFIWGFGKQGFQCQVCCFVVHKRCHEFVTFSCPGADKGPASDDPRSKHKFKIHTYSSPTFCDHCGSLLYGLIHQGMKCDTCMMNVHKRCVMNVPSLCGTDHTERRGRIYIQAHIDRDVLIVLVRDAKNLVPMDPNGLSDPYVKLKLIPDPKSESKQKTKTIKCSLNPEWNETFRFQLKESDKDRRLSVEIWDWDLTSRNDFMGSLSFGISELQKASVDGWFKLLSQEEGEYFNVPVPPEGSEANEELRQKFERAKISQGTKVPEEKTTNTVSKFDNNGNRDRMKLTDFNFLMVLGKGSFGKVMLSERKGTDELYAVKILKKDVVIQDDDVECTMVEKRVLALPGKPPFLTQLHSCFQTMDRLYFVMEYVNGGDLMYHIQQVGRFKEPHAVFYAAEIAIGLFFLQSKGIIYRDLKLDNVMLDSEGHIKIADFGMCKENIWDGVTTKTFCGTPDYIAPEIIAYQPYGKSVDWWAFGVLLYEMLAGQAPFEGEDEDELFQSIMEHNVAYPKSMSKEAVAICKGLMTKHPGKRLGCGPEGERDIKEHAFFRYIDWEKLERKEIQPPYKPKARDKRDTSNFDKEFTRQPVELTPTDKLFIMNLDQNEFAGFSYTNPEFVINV
UniProt P49643: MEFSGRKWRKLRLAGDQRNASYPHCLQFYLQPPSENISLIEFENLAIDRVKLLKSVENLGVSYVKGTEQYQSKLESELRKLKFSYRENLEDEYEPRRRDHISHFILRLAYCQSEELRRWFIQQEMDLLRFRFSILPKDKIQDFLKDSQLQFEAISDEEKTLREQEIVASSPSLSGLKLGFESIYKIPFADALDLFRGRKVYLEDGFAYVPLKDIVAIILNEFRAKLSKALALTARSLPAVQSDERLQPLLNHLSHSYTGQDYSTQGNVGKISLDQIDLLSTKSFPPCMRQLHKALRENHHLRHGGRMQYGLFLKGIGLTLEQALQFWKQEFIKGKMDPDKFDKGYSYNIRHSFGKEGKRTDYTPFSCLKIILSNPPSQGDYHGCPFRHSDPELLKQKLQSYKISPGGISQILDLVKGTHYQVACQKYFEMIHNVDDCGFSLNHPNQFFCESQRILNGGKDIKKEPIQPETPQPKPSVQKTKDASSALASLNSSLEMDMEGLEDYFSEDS
UniProt Q5VTL8: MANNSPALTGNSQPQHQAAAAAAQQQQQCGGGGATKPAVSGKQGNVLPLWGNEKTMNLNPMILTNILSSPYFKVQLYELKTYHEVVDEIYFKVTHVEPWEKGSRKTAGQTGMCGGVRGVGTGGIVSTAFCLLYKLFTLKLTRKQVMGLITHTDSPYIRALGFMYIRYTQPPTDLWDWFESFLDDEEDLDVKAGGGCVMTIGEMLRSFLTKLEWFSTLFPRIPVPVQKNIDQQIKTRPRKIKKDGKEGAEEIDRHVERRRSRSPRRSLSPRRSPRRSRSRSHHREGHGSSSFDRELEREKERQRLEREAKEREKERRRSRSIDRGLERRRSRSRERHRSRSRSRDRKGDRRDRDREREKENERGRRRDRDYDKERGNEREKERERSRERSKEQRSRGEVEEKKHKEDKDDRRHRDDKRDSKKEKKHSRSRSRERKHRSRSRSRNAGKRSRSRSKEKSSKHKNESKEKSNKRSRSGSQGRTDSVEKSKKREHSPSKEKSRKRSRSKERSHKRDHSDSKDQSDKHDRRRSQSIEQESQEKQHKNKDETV
UniProt P50897: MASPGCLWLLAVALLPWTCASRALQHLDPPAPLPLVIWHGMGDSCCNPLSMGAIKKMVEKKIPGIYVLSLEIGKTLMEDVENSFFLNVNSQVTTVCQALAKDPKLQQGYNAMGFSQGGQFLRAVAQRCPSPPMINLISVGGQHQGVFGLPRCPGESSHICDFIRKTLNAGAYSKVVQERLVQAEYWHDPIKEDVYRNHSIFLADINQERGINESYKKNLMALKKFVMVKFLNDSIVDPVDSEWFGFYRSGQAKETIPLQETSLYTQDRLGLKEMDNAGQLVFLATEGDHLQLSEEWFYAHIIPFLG
UniProt P10644, whole entry, looked up: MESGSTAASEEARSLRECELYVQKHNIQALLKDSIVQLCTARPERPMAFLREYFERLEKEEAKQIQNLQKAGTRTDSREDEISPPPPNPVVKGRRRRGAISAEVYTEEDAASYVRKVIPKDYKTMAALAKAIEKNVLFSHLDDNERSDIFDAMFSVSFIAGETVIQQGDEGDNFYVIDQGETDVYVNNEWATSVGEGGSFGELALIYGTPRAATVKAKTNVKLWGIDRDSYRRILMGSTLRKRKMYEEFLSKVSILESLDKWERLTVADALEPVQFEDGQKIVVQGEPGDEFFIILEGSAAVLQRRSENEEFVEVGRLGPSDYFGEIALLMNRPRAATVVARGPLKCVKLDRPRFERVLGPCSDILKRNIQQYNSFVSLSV
UniProt Q13362, whole entry, looked up: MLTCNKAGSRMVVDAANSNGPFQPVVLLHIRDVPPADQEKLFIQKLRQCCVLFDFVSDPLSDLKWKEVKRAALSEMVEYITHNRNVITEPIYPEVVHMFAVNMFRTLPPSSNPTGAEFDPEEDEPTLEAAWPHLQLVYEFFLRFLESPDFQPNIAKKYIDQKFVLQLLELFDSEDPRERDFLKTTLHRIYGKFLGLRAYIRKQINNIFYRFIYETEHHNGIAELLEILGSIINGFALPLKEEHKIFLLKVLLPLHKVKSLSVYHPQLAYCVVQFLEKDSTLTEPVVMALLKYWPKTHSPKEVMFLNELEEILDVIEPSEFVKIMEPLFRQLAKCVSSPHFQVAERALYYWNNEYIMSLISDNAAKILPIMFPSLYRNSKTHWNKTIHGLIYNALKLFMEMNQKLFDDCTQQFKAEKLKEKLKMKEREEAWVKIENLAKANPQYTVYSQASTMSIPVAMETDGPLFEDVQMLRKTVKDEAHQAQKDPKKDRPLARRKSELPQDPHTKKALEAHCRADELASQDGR

How the values were obtained:
Assay in all cases: log2 fold change, soluble protein after heating vs DMSO (PISA); higher = thermal stabilisation; K562 cells, 10 uM, 30 min; active = over 0.2 and 3.5 SD of the protein, either way, in both replicates (recomputed)
[1] = compound: C#Cc1cccc(Nc2ncnc3cc(OCCOC)c(OCCOC)cc23)c1 [erlotinib]
Procedure, shortened: (§1)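 Values are thermal stability changes relative to control samples and are taken from duplicates. They are stated as log2 fold changes. Before quantification by TMTpro 16plex LC-MS/MS with equalised channel sums, K562 cells at 2×10^6 cells/mL were treated with 10 μM compound for 30 min, heated in aliquots for 3 min across 48°C-58°C, pooled, extracted in PBS with 0.5% NP-40 at 4°C, and centrifuged at 21,000xg for 90 min to give the soluble supernatant.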

[2] = compound: C/C(=N\NC(=O)C1=CC(=CC=C1)S(=O)(=O)N2CCOCC2)/C3=C(C=CC(=C3)Cl)O
Procedure, shortened: as §1

[3] = compound: C1=CC(=C(C=C1Cl)C2=NC3=NC=CN=C3C(=N2)NC4=CC=NC=C4)F
Procedure, shortened: as §1

[4] = compound: C1=CC(=CC=C1C2=NC3=C(N2)C=C(C=C3)C(=O)N)OC4=CC=C(C=C4)Cl
Procedure, shortened: as §1

[5] = compound: C1=CC2=C(C=CC(=C2)/C=C\3/C(=O)NC(=NCC4=CC=CS4)S3)N=C1
Procedure, shortened: as §1

[6] = compound: C1=CC2=NC=CN=C2C=C1/C=C/3\C(=O)NC(=O)S3
Procedure, shortened: as §1

[7] = compound: C1=CC=C(C=C1)C2=NC(=C(N2)C3=CC=NC=C3)C4=CC(=C(C=C4)Cl)O
Procedure, shortened: as §1

[8] = compound: C1=CC=C2C(=C1)C3=NNC4=CC=CC(=C43)C2=O
Procedure, shortened: as §1

[9] = compound: C1CCN(C1)C(=O)NC2=CC=CC(=C2)NC3=NC=C(C(=N3)NCCC4=CN=CN4)Br
Procedure, shortened: as §1

[10] = compound: C1CN(CCC1(CC2=CC=C(C=C2)Cl)N)C3=NC=NC4=C3C=CN4
Procedure, shortened: as §1

[11] = compound: C1COCCN1CCN2C3=CC=CC=C3N=C2NC(=O)C4=CC(=CC=C4)[N+](=O)[O-] [IRAK-1-4 Inhibitor I]
Procedure, shortened: as §1

[12] = compound: C=CC(=O)N1CCC[C@@H](n2nc(-c3ccc(Oc4ccccc4)cc3)c3c(N)ncnc32)C1 [ibrutinib]
Procedure, shortened: as §1

[13] = compound: CC(=O)c1cnc2ccc(-c3cc(Cl)c(O)c(Cl)c3)nc2c1N[C@H]1CC[C@H](CN(C)C)CC1
Procedure, shortened: as §1

[14] = compound: CC(C)(C)Cn1c(N)nc2ccc(-c3[nH]c(C(C)(C)C)nc3-c3ccc(F)cc3)nc21 [ralimetinib]
Procedure, shortened: as §1

[15] = compound: CC(C)(O)CC(=O)NCCn1ccc2ncnc(Nc3ccc(Oc4cccc(C(F)(F)F)c4)c(Cl)c3)c21
Procedure, shortened: as §1

[16] = compound: CC(C)C1=C2N=C(C=C(N2N=C1)NCC3=CC=CC=C3)NCCCCCCN
Procedure, shortened: as §1

[17] = compound: CC(C)C[C@@H](C=O)NC(=O)[C@H](CC(C)C)NC(=O)[C@H](CC(C)C)NC(=O)OCc1ccccc1
Procedure, shortened: as §1

[18] = compound: CC(C)N(C[C@H]1O[C@@H](n2cnc3c(N)ncnc32)[C@H](O)[C@@H]1O)[C@H]1C[C@@H](CCc2nc3cc(C(C)(C)C)ccc3[nH]2)C1 [pinometostat]
Procedure, shortened: as §1

[19] = compound: CC1=C(C2=C(C=C1)C(=O)C3=CC=CC=C3N2CCCN)C
Procedure, shortened: as §1

[20] = compound: CC1=C(C(CC(=O)N1)C2=CC=C(C=C2)C(F)(F)F)C(=O)NC3=C(C=C4C(=C3)C=NN4)F
Procedure, shortened: as §1

Row | Target | log2 fold change [1] | log2 fold change [2] | log2 fold change [3] | log2 fold change [4] | log2 fold change [5] | log2 fold change [6] | log2 fold change [7] | log2 fold change [8] | log2 fold change [9] | log2 fold change [10] | log2 fold change [11] | log2 fold change [12] | log2 fold change [13] | log2 fold change [14] | log2 fold change [15] | log2 fold change [16] | log2 fold change [17] | log2 fold change [18] | log2 fold change [19] | log2 fold change [20]
1 | PRKAA1 isoform 2 (UniProt Q13131) | inactive: 0 | inactive: 0.026 | inactive: 0.084 | inactive: 0.045 | inactive: 0.018 | inactive: 0.013 | inactive: 0.012 | inactive: -0.051 | inactive: -0.034 | inactive: 0.012 | inactive: 0.046 | inactive: -0.006 | active: -0.343 | inactive: -0.003 | inactive: -0.009 | inactive: -0.025 | inactive: -0.014 | inactive: -0.014 | inactive: 0.019 | 
2 | PRPF3 (UniProt O43395) | inactive: 0.06 | inactive: 0.144 | inactive: 0.069 | inactive: -0.02 | inactive: 0.015 | inactive: 0.019 | inactive: 0.057 | inactive: 0 | inactive: -0.07 | inactive: 0.053 | inactive: -0.018 | inactive: -0.038 | inactive: -0.179 | inactive: -0.008 | inactive: -0.055 | inactive: -0.205 | inactive: -0.001 | inactive: 0 | inactive: -0.2 | 
3 | PPME1 (UniProt Q9Y570) | inactive: 0.012 | inactive: 0.065 | inactive: 0.042 | inactive: 0 | inactive: 0.03 | inactive: 0.009 | inactive: 0.035 | inactive: 0.009 | inactive: -0.037 | inactive: 0.026 | inactive: 0.036 | inactive: -0.019 | inactive: -0.034 | inactive: -0.067 | inactive: 0 | inactive: 0.053 | inactive: -0.058 | inactive: -0.01 | inactive: 0.038 | inactive: -0.014
4 | PRKCD (UniProt Q05655) | inactive: -0.01 | inactive: 0.004 | inactive: 0.028 | inactive: 0.065 | inactive: 0.016 | inactive: 0.044 | inactive: -0.006 | inactive: -0.008 | inactive: 0.009 | inactive: -0.001 | inactive: 0.043 | inactive: -0.027 | active: -0.685 | inactive: -0.041 | inactive: -0.013 | inactive: -0.004 | inactive: 0.022 | inactive: 0.017 | inactive: 0 | 
5 | PRPF6 (UniProt O94906) | inactive: -0.122 | inactive: 0.058 | inactive: -0.228 | inactive: 0.051 | inactive: -0.072 | inactive: -0.214 | inactive: -0.049 | inactive: -0.168 | inactive: -0.025 | inactive: -0.245 | inactive: 0.199 | inactive: 0.002 | inactive: 0.044 | inactive: 0.128 | inactive: 0.125 | inactive: -0.526 | inactive: 0.134 | inactive: -0.097 | inactive: -0.055 | 
6 | PRMT7 (UniProt Q9NVM4) | inactive: 0.093 | inactive: 0.132 | inactive: 0.064 | inactive: -0.017 | inactive: 0.142 | inactive: 0.018 | inactive: -0.109 | inactive: -0.039 | inactive: 0.031 | inactive: -0.031 | inactive: 0.044 | inactive: -0.061 | inactive: -0.004 | inactive: -0.005 | inactive: 0.048 | active: -0.329 | inactive: -0.033 | inactive: 0.074 | inactive: -0.065 | 
7 | PRDX4 (UniProt Q13162) | inactive: 0.013 | inactive: -0.003 | inactive: 0.006 | inactive: -0.022 | inactive: 0.035 | inactive: 0.068 | inactive: -0.047 | inactive: 0.001 | inactive: 0.044 | inactive: 0.06 | inactive: 0.009 | inactive: -0.005 | inactive: -0.047 | inactive: -0.091 | inactive: 0.025 | inactive: 0.029 | inactive: -0.02 | inactive: -0.045 | inactive: -0.003 | inactive: 0.022
8 | PRKCB isoform 2 (UniProt P05771) | inactive: 0.038 | inactive: 0.031 | inactive: 0.038 | inactive: 0 | inactive: 0.086 | inactive: 0.004 | inactive: 0.021 | inactive: 0.037 | inactive: 0 | inactive: -0.067 | inactive: 0.027 | inactive: -0.009 | active: -0.373 | inactive: 0.022 | inactive: -0.057 | inactive: -0.049 | inactive: 0.028 | inactive: 0.014 | inactive: -0.025 | 
9 | PRIM2 (UniProt P49643) | inactive: 0.004 | inactive: 0.038 | inactive: 0.018 | inactive: 0.015 | inactive: 0.061 | inactive: 0.009 | inactive: 0.035 | inactive: 0.035 | inactive: -0.023 | inactive: -0.071 | inactive: -0.043 | inactive: -0.04 | inactive: -0.065 | inactive: -0.058 | inactive: -0.265 | inactive: -0.213 | inactive: 0.074 | inactive: 0.005 | inactive: 0.059 | 
10 | PRPF38B (UniProt Q5VTL8) | inactive: -0.016 | inactive: 0.022 | inactive: -0.049 | inactive: 0.082 | inactive: -0.184 | inactive: -0.085 | inactive: -0.027 | inactive: -0.146 | inactive: -0.018 | inactive: -0.054 | inactive: -0.158 | inactive: -0.005 | active: -0.646 | inactive: -0.025 | inactive: 0.045 | inactive: -0.06 | inactive: 0.03 | inactive: -0.029 | inactive: 0.159 | 
11 | PRG4 (UniProt Q92954) | inactive: 0.002 | inactive: -0.109 | inactive: 0.011 | inactive: -0.085 | inactive: 0.15 | inactive: 0.024 | inactive: -0.139 | inactive: -0.171 | inactive: -0.143 | inactive: 0.031 | inactive: -0.072 | inactive: -0.005 | inactive: 0 | inactive: 0.011 | inactive: 0.059 | inactive: 0.29 | inactive: 0.054 | inactive: -0.068 | inactive: -0.127 | 
12 | PPT1 (UniProt P50897) | inactive: 0.01 | inactive: -0.011 | inactive: 0.018 | inactive: -0.003 | inactive: 0.04 | inactive: 0.007 | inactive: 0.01 | inactive: 0.024 | inactive: 0.036 | inactive: -0.009 | inactive: 0.041 | inactive: 0.049 | inactive: 0.008 | inactive: -0.072 | inactive: 0.039 | active: -0.406 | inactive: 0.048 | inactive: -0.036 | inactive: -0.06 | 
13 | PPP2R1B isoform 2 (UniProt P30154) | inactive: 0.028 | inactive: 0 | inactive: 0.057 | inactive: -0.004 | inactive: -0.023 | inactive: 0.089 | inactive: 0.026 | inactive: 0.017 | inactive: 0.021 | inactive: -0.012 | inactive: -0.023 | inactive: -0.076 | inactive: 0.057 | inactive: 0.026 | inactive: -0.083 | inactive: -0.069 | inactive: -0.056 | inactive: -0.02 | inactive: -0.006 | inactive: 0.006
14 | PRKAR1A (UniProt P10644) | inactive: 0.078 | inactive: -0.084 | inactive: -0.037 | inactive: -0.027 | inactive: 0.116 | inactive: 0.018 | inactive: 0.066 | inactive: 0.139 | inactive: 0.128 | inactive: -0.017 | inactive: -0.068 | inactive: 0.035 | inactive: -0.049 | inactive: 0.268 | inactive: 0.041 | inactive: -0.149 | inactive: 0.041 | inactive: 0.131 | inactive: -0.127 | 
15 | PPP2R5C isoform 5 (UniProt Q13362) | inactive: 0.028 | inactive: 0.021 | inactive: 0.015 | inactive: -0.014 | inactive: 0.009 | inactive: -0.036 | inactive: 0.004 | inactive: 0.047 | inactive: -0.018 | inactive: -0.002 | inactive: -0.023 | inactive: 0.041 | inactive: -0.059 | inactive: -0.044 | inactive: -0.072 | inactive: -0.061 | inactive: 0.031 | inactive: 0.011 | inactive: -0.018 | 

Two entries picked at random from those above, as already listed:
Row | Target | log2 fold change [1] | log2 fold change [2] | log2 fold change [3] | log2 fold change [4] | log2 fold change [5] | log2 fold change [6] | log2 fold change [7] | log2 fold change [8] | log2 fold change [9] | log2 fold change [10] | log2 fold change [11] | log2 fold change [12] | log2 fold change [13] | log2 fold change [14] | log2 fold change [15] | log2 fold change [16] | log2 fold change [17] | log2 fold change [18] | log2 fold change [19] | log2 fold change [20]
12 | PPT1 (UniProt P50897) | inactive: 0.01 | inactive: -0.011 | inactive: 0.018 | inactive: -0.003 | inactive: 0.04 | inactive: 0.007 | inactive: 0.01 | inactive: 0.024 | inactive: 0.036 | inactive: -0.009 | inactive: 0.041 | inactive: 0.049 | inactive: 0.008 | inactive: -0.072 | inactive: 0.039 | active: -0.406 | inactive: 0.048 | inactive: -0.036 | inactive: -0.06 | 
4 | PRKCD (UniProt Q05655) | inactive: -0.01 | inactive: 0.004 | inactive: 0.028 | inactive: 0.065 | inactive: 0.016 | inactive: 0.044 | inactive: -0.006 | inactive: -0.008 | inactive: 0.009 | inactive: -0.001 | inactive: 0.043 | inactive: -0.027 | active: -0.685 | inactive: -0.041 | inactive: -0.013 | inactive: -0.004 | inactive: 0.022 | inactive: 0.017 | inactive: 0 | 
